From PMC7005904

Chains of the proteins cited; added tags and fusions are not shown.
UniProt Q92993: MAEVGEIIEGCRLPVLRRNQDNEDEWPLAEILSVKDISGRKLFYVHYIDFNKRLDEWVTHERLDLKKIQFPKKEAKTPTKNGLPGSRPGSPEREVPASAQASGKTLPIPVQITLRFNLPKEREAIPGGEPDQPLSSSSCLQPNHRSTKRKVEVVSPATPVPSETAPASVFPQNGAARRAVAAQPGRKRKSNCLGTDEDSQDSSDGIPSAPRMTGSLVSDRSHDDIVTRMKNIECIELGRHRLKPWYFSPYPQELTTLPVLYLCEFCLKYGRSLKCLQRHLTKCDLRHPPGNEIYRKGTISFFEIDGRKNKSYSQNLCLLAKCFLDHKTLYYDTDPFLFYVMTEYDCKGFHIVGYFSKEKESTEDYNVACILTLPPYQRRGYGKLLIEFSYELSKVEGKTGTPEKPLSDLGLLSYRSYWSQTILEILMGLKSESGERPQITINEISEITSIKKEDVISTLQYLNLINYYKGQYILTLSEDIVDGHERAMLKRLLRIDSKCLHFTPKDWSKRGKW
UniProt Q8IY92: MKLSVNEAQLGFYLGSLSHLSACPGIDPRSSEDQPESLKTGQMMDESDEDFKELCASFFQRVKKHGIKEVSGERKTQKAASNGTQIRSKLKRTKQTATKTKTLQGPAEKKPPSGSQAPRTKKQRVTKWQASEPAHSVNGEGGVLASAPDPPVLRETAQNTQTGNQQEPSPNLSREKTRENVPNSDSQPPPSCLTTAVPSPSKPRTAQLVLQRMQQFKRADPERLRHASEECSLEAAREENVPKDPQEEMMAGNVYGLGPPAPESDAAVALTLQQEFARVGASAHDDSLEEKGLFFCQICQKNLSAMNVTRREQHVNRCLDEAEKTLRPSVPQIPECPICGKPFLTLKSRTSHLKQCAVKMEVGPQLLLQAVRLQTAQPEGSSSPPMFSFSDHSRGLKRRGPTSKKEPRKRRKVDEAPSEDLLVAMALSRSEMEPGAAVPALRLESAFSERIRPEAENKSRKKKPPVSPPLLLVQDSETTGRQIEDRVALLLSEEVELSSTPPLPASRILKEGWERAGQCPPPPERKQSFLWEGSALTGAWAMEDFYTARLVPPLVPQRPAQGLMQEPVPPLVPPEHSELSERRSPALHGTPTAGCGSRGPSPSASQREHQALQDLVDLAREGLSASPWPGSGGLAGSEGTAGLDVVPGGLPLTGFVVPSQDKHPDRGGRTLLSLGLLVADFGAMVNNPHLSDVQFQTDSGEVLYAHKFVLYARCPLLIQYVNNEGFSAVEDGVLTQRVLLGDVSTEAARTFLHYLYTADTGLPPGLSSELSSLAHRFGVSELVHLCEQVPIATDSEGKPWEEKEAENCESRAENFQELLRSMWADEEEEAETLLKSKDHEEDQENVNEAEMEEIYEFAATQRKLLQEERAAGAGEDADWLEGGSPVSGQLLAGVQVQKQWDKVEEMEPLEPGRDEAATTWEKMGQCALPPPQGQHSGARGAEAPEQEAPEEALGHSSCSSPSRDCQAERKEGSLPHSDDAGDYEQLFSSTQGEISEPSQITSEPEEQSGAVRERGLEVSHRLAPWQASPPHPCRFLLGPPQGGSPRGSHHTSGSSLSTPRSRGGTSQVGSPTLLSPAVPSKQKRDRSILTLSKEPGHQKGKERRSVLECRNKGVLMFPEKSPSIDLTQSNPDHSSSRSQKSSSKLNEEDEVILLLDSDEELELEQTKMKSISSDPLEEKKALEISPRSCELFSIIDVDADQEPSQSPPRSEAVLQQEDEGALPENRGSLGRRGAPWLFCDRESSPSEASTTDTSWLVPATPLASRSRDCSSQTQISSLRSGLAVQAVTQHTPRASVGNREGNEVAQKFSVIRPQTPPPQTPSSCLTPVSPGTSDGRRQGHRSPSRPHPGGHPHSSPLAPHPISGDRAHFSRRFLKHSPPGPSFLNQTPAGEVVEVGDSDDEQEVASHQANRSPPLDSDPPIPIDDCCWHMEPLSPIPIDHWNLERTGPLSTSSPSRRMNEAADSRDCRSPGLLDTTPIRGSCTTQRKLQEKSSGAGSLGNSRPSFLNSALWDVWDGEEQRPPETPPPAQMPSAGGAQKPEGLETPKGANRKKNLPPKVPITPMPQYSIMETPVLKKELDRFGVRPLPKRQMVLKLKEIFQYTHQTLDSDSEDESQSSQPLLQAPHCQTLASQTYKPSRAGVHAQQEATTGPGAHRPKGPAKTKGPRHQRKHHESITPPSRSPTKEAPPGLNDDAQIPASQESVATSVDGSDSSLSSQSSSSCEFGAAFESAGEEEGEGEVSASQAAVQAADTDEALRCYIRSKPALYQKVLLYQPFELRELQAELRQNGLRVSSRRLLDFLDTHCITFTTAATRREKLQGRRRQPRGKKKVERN
UniProt Q9Y265: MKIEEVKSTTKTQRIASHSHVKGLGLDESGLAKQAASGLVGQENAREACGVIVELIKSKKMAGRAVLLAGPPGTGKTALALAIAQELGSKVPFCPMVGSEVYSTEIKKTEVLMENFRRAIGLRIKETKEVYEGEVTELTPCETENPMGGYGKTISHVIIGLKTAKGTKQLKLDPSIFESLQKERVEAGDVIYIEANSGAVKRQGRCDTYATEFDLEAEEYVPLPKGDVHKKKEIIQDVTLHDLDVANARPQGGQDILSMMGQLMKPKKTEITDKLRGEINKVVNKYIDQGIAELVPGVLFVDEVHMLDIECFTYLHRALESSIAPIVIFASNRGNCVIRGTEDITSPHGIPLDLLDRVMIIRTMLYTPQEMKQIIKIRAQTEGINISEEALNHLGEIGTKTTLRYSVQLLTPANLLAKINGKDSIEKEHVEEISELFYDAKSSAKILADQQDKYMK
UniProt Q9NPF5: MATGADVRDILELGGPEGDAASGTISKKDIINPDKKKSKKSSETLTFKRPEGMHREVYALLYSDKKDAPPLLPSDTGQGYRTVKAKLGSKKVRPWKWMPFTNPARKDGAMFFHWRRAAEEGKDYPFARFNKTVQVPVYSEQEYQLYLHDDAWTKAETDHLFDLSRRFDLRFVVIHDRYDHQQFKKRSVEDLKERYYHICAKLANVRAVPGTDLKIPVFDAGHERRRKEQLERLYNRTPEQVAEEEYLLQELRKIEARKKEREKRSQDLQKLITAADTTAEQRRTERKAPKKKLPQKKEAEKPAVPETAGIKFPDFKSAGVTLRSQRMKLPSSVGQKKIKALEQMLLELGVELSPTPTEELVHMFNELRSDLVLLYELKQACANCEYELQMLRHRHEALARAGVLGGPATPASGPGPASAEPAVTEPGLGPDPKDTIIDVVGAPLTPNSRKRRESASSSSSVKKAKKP

How the values were obtained:
[1] = target: T1, SFB-tagged XPF (wild type) (UniProt Q92889); assay: affinity purification with mass spectrometry; tandem affinity purification from HEK293T stably expressing the SFB-tagged bait: streptavidin beads, biotin elution, S-protein beads; NETN buffer (20 mM Tris-HCl pH 8.0, 100 mM NaCl, 1 mM EDTA, 0.5% Nonidet P-40), 4 °C; performed once
T1 sequence: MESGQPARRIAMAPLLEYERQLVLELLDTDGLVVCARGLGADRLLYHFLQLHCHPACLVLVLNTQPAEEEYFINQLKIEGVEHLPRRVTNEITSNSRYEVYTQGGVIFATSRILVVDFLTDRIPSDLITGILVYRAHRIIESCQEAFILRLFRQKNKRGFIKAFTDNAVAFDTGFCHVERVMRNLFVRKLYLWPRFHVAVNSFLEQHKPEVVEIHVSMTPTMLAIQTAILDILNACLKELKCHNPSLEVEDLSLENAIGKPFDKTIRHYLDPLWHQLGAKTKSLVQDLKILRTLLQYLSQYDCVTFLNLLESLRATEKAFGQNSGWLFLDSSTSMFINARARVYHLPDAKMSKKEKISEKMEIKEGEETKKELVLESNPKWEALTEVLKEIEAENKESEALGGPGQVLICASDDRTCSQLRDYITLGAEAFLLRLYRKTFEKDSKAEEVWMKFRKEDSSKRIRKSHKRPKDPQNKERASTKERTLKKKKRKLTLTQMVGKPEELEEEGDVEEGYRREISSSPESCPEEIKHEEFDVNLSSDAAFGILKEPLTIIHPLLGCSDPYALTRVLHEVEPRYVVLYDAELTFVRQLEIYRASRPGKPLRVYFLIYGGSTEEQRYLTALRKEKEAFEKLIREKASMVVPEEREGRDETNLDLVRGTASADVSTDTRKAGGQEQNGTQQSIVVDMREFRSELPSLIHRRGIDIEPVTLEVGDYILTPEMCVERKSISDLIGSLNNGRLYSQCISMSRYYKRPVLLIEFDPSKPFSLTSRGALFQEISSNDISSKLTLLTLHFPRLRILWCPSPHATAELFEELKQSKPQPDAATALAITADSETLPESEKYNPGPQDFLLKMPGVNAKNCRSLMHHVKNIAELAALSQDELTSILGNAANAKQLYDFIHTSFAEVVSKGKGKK

[2] = target: SFB-tagged TIP60 (UniProt Q92993); assay: as above

binding [1]: binds
Molecule: SLX4 (from UniProt Q8IY92 1-1834)

binding [2]: binds
Molecule: RUVBL1 (from UniProt Q9Y265 1-456)

binding [2]: binds
Molecule: DMAP1 (from UniProt Q9NPF5 1-467)

binding [2]: binds
B1: XPF, endogenous in HEK293T (protein, UniProt Q92889 1-916)
chain: T1 sequence

These are yes or no findings as the source states them, for the method shown. In cells and extracts the contact can be indirect. A yes stands for co-enrichment or nearness to the bait. Other partners may have been found. For some of these results: Where a sequence is shown, tags or fusion partners need not be part of it. Each block holds one molecule with its values, some of them ahead of it.
